{"source": "paper PMC11116813", "target": "human HP1α chromoshadow domain (CSD), recombinant (human)", "assay": "NMR titration; 13C/15N-labelled HP1α CSD dimer with unlabelled INCENP 160–192 added until the free CSD signals disappeared; 1H-15N HSQC and filtered/edited NOESY, 298 K, 20 mM NaPO4 pH 7.0, 150 mM NaCl, 1 mM DTT, 5% D2O; both purified", "note": "Results are given in words; binding and its absence hold for the method and conditions named. Binding calls can cover weak binding; strength is not graded here. Sequences can lack the tags named with a protein.", "data": [{"binder": "YHTQCQLVPVVEIGISERQNAEQHVTQLMSTEPL (domain or fragment, UniProt Q9NQS7 160-192)", "note": "[human INCENP (160-192), untagged version (Tyr-added), GST removed]", "values": [{"measurement": "binding", "result": "binds"}]}]}
